Results taken from the supplement of paper PMC7877785.
± gives the uncertainty stated by the source. Many entries were measured with a wide error.

Assay: self-splicing fitness, log relative to wild type (ln ratio); higher = more splicing; Tetrahymena group I intron in knt gene, E. coli kanamycin selection, DiMSum; sequences stand for … in CUCUCU…GGAGGGAAAAGUUAUCAGGCAUGCACCUGGUAGCUAGUCUUUAAACCAAUAGAUUGCAUCGGUUUAAAAGGCAAGACCGUCAAAUUGCGGGAAAGGGGUCAACAGCCGUUCAGUACCAAGUCUCAGGGGAAACUUUGAGAUGGCCUUGCAAAGGGUAUGGUAAUAAGCUGACGGACAUGGUCCUAACCACGCAGCCAAGUCCUAAGUCAACAGAUCUUCUGUUGAUAUGGAUGCAGUUCACAGACUAAAUGUCGGUCGGGGAAGAUGUAUUCUUCUCAUAAGAUAUAGUCGGACCUCUCCUUAAUGGGAGCUAGCGGAUGAAGUGAUGCAACACUGGAGCCGCUGGGAACUAAUUUGUAUGCGAAAGUAUAUUGAUUAGUUUUGGAGUACUCGUGGUCG
Method in brief: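 DiMSum derived fitness as the error-weighted combination of fold changes across replicates, kanamycin versus no kanamycin, normalised to wild type. E. coli BL21(DE3) held the library, which randomised all eight P1ex-region intron nucleotides within the knt kanamycin-resistance gene on pET-22b(+). Six replicate transformations grew overnight at 37°C or 30°C on LB agar with or without 25 μg/mL kanamycin, also containing 100 μg/mL carbenicillin, 50 μM IPTG and 0.2% rhamnose, and pooled colonies were amplicon-sequenced on an Illumina HiSeq 2500.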

## AAAGAGCAAUAUUACGUAUC
30 °C
  self-splicing fitness (ln): -3.39 ± 0.6

## AUAAAGCAAUAUUACGUCUU
30 °C
  self-splicing fitness (ln): 0.183 ± 0.05
37 °C
  self-splicing fitness (ln): 0.29 ± 0.073

## ACGAAGCAAUAUUACGGGAC
30 °C
  self-splicing fitness (ln): -4.36 ± 0.24
37 °C
  self-splicing fitness (ln): -2.68 ± 0.18

## CCGGAGCAAUAUUACGCAGA
30 °C
  self-splicing fitness (ln): -3.62 ± 0.61
37 °C
  self-splicing fitness (ln): -2.05 ± 0.5

## GCGAAGCAAUAUUACGCCAG
37 °C
  self-splicing fitness (ln): -1.93 ± 0.59

## GCGGAGCAAUAUUACGCUGC
30 °C
  self-splicing fitness (ln): -3.41 ± 0.75

## UCUGAGCAAUAUUACGACAG
30 °C
  self-splicing fitness (ln): -1.02 ± 0.12
37 °C
  self-splicing fitness (ln): -1.04 ± 0.15

## GUAAAGCAAUAUUACGAUAC
30 °C
  self-splicing fitness (ln): -0.815 ± 0.14
37 °C
  self-splicing fitness (ln): -0.547 ± 0.16

## CGCUAGCAAUAUUACGGUCA
30 °C
  self-splicing fitness (ln): -0.0527 ± 0.076
37 °C
  self-splicing fitness (ln): 0.137 ± 0.079

## AGUAAGCAAUAUUACGUCAG
30 °C
  self-splicing fitness (ln): -4.94 ± 0.58

## UGAGAGCAAUAUUACGCGGU
30 °C
  self-splicing fitness (ln): -3.43 ± 1
37 °C
  self-splicing fitness (ln): -0.929 ± 0.39

## CCUAAGCAAUAUUACGCAGA
30 °C
  self-splicing fitness (ln): -3.91 ± 0.52

## UGUGAGCAAUAUUACGGAUU
30 °C
  self-splicing fitness (ln): -3.17 ± 0.54
37 °C
  self-splicing fitness (ln): -1.59 ± 0.34

## UAUUAGCAAUAUUACGGUCC
30 °C
  self-splicing fitness (ln): -2.93 ± 1.1
37 °C
  self-splicing fitness (ln): -1.79 ± 0.56

## GAAGAGCAAUAUUACGAACG
30 °C
  self-splicing fitness (ln): -4.94 ± 0.51

## CGCCAGCAAUAUUACGACCA
30 °C
  self-splicing fitness (ln): -2.86 ± 0.62
37 °C
  self-splicing fitness (ln): -2.32 ± 0.64

## GAAGAGCAAUAUUACGAUUG
30 °C
  self-splicing fitness (ln): -2.53 ± 0.29
37 °C
  self-splicing fitness (ln): -2.4 ± 0.39

## UGAUAGCAAUAUUACGUAGC
30 °C
  self-splicing fitness (ln): -2.92 ± 0.55
37 °C
  self-splicing fitness (ln): -0.141 ± 0.6

## UCCGAGCAAUAUUACGUCCU
37 °C
  self-splicing fitness (ln): -1.75 ± 0.67

## UACGAGCAAUAUUACGAUCC
37 °C
  self-splicing fitness (ln): -1.79 ± 0.59

## CCGGAGCAAUAUUACGGCUC
30 °C
  self-splicing fitness (ln): -3.86 ± 1

## AUAGAGCAAUAUUACGCAGC
30 °C
  self-splicing fitness (ln): -2.33 ± 0.45
37 °C
  self-splicing fitness (ln): -2.01 ± 0.56

## GGACAGCAAUAUUACGUAUC
30 °C
  self-splicing fitness (ln): -0.918 ± 0.093
37 °C
  self-splicing fitness (ln): -0.855 ± 0.11
